Laboratory results: EP4847511A1, “COMPOUND WITH TRICYCLIC STRUCTURE, PHARMACEUTICAL COMPOSITION THEREOF AND USE THEREOF” (dated 2026)
Structures were worked out from names or drawings and are uncertain.

Chains of the proteins cited; added tags and fusions are not shown. Lines headed by an entry give the natural chain unless they say otherwise; changes in a name come on top.
UniProt P42336, whole entry: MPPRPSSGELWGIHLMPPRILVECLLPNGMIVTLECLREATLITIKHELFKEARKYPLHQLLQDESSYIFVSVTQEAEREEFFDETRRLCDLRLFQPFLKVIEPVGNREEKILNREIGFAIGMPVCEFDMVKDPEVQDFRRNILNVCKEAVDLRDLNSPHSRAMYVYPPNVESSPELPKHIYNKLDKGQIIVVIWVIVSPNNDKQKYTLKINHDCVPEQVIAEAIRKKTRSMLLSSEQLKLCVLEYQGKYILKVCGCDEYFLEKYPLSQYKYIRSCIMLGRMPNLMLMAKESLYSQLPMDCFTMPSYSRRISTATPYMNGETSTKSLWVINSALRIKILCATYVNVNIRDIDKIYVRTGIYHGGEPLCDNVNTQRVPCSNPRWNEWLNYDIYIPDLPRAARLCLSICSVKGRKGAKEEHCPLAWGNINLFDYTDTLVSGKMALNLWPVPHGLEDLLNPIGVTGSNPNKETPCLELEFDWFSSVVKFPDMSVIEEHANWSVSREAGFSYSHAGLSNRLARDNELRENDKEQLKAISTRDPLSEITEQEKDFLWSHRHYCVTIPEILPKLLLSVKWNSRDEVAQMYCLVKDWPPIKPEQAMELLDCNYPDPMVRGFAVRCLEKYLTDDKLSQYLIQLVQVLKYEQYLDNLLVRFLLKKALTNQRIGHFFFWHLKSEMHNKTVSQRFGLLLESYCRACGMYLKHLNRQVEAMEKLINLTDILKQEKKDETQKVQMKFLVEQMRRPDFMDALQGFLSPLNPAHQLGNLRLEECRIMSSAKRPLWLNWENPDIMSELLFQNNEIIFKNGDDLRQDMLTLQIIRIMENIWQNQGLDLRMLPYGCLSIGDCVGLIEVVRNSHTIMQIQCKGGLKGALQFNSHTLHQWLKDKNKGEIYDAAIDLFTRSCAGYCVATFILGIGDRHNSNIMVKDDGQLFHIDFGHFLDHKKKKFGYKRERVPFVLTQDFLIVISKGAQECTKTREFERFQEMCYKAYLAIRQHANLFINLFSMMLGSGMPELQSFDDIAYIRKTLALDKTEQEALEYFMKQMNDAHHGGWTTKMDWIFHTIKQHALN
UniProt P42336, whole entry H1047R: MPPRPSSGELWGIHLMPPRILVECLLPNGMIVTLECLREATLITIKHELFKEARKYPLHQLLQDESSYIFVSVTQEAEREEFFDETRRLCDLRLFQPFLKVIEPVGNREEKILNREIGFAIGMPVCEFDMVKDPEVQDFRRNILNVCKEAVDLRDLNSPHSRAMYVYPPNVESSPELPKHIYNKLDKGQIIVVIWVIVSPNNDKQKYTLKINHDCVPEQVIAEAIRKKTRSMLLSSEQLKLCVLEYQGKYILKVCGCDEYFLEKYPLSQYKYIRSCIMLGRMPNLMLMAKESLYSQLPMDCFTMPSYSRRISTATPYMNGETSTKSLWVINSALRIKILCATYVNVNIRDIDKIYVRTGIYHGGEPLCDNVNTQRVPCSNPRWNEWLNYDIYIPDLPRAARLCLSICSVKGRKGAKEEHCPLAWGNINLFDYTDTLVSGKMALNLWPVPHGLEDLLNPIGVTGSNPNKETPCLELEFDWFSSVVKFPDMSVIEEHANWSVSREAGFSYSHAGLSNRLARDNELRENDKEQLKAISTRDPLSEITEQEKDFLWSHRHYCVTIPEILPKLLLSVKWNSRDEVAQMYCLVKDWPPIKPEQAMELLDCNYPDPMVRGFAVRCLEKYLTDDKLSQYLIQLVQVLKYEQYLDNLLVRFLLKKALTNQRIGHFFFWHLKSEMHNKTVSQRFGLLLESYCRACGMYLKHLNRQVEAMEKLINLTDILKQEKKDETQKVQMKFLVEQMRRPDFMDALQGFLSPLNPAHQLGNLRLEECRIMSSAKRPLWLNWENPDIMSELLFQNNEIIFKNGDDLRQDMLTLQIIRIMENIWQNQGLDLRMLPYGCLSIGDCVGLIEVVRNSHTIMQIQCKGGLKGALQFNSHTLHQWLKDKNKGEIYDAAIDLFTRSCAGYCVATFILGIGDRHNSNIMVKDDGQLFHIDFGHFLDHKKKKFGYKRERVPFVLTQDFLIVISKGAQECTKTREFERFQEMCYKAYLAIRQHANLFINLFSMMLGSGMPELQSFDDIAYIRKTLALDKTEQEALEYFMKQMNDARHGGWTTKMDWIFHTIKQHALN
UniProt P27986, whole entry partner: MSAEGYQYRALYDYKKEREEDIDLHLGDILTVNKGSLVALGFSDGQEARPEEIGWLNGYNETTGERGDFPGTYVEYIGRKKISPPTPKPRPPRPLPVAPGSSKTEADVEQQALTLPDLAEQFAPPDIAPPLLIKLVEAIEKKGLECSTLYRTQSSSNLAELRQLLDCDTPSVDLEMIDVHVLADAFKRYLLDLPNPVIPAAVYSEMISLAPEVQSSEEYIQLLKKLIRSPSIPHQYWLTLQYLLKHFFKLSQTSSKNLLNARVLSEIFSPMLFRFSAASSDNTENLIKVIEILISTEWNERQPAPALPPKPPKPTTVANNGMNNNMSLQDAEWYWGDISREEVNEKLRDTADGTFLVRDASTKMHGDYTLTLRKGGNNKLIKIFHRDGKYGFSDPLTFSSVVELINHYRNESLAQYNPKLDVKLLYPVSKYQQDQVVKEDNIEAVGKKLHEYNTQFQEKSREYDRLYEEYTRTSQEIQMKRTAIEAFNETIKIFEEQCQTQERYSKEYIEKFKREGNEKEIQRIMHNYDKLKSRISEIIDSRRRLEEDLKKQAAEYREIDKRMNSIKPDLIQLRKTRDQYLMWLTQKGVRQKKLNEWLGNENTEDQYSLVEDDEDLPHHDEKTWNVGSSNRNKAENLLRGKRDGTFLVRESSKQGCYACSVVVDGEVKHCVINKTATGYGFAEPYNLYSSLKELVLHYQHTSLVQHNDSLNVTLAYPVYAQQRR

Columns and labels:
PI3Kα H1047R = PI3Kα H1047R (Homo sapiens, UniProt P42336, H1047R); assay: ADP-Glo Kinase Assay, enzyme activity inhibition of PI3Kα H1047R; conditions: read-out: PI3KαH1047R IC50, ATP 25µM, PIP2 50µg/mL, kinase 0.05µg/mL, room temperature 1 hour
Experimental: (§1) Effect Example IC50 of PI3Kα and PI3KαH1047R enzyme activity inhibition evaluation assay
(§2) The ADP-Glo Kinase Assay Kit was used for the experiments. The following buffer solutions were prepared: 50 mM HEPES, pH 7.5, 3 mM MgCl2, 1 mM EGTA, 100 mM NaCl, 0.03% CHAPS, 2 mM DTT. The tested compound samples were dissolved in DMSO and added to the screening system at a certain starting concentration of, for example, 10 µM, diluted 3-fold, while setting a DMSO control and an unkinase control. The optimal concentrations of PI3Kα, PI3Kα H1047R, substrate (PIP2) and ATP were prepared with buffers. The enzyme reaction system included: buffer, ATP 25µM, kinase substrate (PIP2, 50µg/mL), kinase PI3Kα (0.15µg/mL), PI3Kδ H1047R (0.05µg/mL), etc. The reaction system was reacted at room temperature for 1 hour, then terminated by adding a terminal reagent (ADP-Glo reagent, 5µL), and the ADP content in the system was detected using a detection reagent (Kinase Detection Reagent, 10µL). Signal data was collected using the Envision instrument. Calculated the % inhibition according to the following formula: % inhibition = (DMSO control signal value - sample signal value)/ (DMSO control signal value - unkinase control signal value). Inhibition curves were plotted using the formula Y=Bottom + (Top-Bottom)/(1+(IC50/X)^HillSlope) to obtain IC50 values and the results are as shown in Table 1.
(§3) Result + represents IC50 <= 250nM ++ represents 250 nM < IC50 < = 10µM +++ represents IC50 > 10 µM Table 1

PI3Kα = PI3Kα (Homo sapiens, UniProt P42336); assay: ADP-Glo Kinase Assay, enzyme activity inhibition of PI3Kα; conditions: read-out: PI3Kα IC50, ATP 25µM, PIP2 50µg/mL, kinase PI3Kα 0.15µg/mL, room temperature 1 hour
Experimental: as §1, §2, §3

IC50 (PI3Kα H1047R) | IC50 (PI3Kα) | Compound
0.25 to 10 µM | > 10 µM | Cn1nc2c(-c3ccccc3C#N)cc(NC(=O)c3cc(F)cc(C(F)(F)F)c3)c3c2c1C(=O)N[C@H]3c1cc(F)ccc1Cl
< 0.25 µM | > 10 µM | Cn1nc2c(Cl)cc(NC(=O)c3cc(F)cc(C(F)(F)F)c3)c3c2c1C(=O)N[C@@H]3c1cc(Cl)c(F)cc1Cl
0.25 to 10 µM | > 10 µM | Cn1nc2c(Cl)cc(NC(=O)c3cc(F)cc(C(F)(F)F)c3)c3c2c1C(=O)N[C@H]3c1cc(Cl)c(F)cc1Cl
< 0.25 µM | 0.25 to 10 µM | Cn1nc2c(-c3ccccc3C#N)cc(NC(=O)c3cc(F)cc(C(F)(F)F)c3)c3c2c1C(=O)N[C@@H]3c1cc(F)ccc1Cl
